# Results of single-concentration screens

Chains of the proteins cited; added tags and fusions are not shown. Residues count along the entry.
UniProt Q8IDJ8, 1-583: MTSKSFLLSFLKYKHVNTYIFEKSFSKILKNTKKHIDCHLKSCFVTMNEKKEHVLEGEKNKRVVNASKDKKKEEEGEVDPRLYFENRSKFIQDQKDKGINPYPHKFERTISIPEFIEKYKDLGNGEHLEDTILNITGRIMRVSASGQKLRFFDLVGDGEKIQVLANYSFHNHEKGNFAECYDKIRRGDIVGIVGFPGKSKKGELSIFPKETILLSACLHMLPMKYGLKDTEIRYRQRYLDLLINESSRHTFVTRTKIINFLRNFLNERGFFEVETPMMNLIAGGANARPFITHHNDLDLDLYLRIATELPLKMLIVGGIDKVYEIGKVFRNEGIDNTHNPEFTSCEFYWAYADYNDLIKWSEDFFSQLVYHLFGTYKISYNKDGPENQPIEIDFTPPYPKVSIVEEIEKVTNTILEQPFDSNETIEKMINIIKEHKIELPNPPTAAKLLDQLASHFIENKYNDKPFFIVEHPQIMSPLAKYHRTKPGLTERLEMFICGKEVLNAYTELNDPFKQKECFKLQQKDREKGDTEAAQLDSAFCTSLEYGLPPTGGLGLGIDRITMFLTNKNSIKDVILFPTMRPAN

From ChEMBL document CHEMBL3988442, “University of Dundee, Small-Polar-MMV Screening Library” (2021).

Results are given as percent effect.
The controls that fix the scale are not given in the record; negative values are as filed.
Compounds were drawn at random from those tested, without regard to their results.
A dash means the value is not listed here; it may have been measured.

A: 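Assay of Toxoplasma gondii numbers, read through their beta-galactosidase reporter with a colour substrate. Concentration: 10 µM. The record gives no direction; the compounds picked for IC50 retests had high values, so higher reads as fewer parasites. Of about 67,000 compounds tested this way, about 260 (0.38%) reached 50% or more in at least one test.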
B: 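Whole-parasite assay of Trypanosoma brucei over 72 hours; the read-out is not stated. Tested at 30 µM. Higher reads as stronger inhibition (inferred: compounds with an IC50 in retests scored well above the rest). Values scatter widely below zero; nearly all retest evidence comes from the higher of the two concentrations used. Of about 64,000 compounds tested this way, about 940 (1.5%) reached 50% or more in at least one test.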
C: 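Cell assay of Leishmania donovani living inside macrophages; the read-out is not stated. Concentration: 30 µM. Direction is inferred from retests: higher values go with stronger inhibition. About 69,000 compounds were tested under these conditions; 1.5% (about 1,000) showed 50% or more at least once.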
D: 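Lysine-tRNA ligase, Plasmodium falciparum 3D7 (UniProt Q8IDJ8). Enzyme assay of the cytosolic lysyl-tRNA synthetase in 384-well plates, read by luminescence. Concentration: 30 µM. Direction is inferred from only a few compounds that gave an IC50; most scored high, so higher reads as stronger inhibition. About 69,000 compounds were tested under these conditions; 0.071% (about 49) showed 50% or more at least once.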

With O=C1NCCN(C(=O)CN2CCOC2=O)C1c1cccc(F)c1 (stereo unspecified) the screen gave A: 5.201%; B: -60.78%; C: 24.02%; D: 2.287%.
With [H][C@]12CO[C@H](CNS(C)(=O)=O)[C@@]1([H])CCN(C(=O)c1cnoc1C)C2 the screen gave A: 1.915%; B: 4.702%; C: -3.071%.
With CCc1nc(C2CCCN2Cc2nc(C3CC3)no2)no1 (stereo unspecified) the screen gave A: 8.765%; B: 4.988%; C: -4.347%; D: -1.488%.
With O=C(NCCO)C1(CC2CC(c3ccc(F)cc3)=NO2)CCOCC1 (stereo unspecified) the screen gave A: 8.56%; B: -11.7%; C: -39.84%; D: -2.128%.
With CCOC(=O)NC1CCCN(c2cncc(Br)c2)C1 (stereo unspecified) the screen gave A: -18.14%; B: -12.06%; C: 34.94%; D: -1.027%.
With Cc1nn2c(nc1=O)-c1ccccc1NC2C(=O)O (stereo unspecified) the screen gave A: 15.12%; B: -8.382%; C: 31.63%; D: -0.9765%.
With O=S(=O)(CCNCc1ccc2c(c1)CCO2)N1CCOCC1 the screen gave A: -2.077%; B: -21.6%; C: 21.5%; D: -7.216%.
With CCN1CCCC(O)(CNCc2ccccn2)C1 (stereo unspecified) the screen gave A: 7.344%; B: 5.741%; C: 20.38%; D: 5.016%.
With O=C1NCCCc2[nH]c(C3CCN(C(=O)C4CC4)CC3)nc21 the screen gave A: -28.78%; B: -15.6%; C: -5.383%; D: -6.346%.
With Cc1cnn(CC2CN(CC(=O)NCCc3cccs3)CCO2)c1 (stereo unspecified) the screen gave A: -2.591%; B: 40.04%; C: -8.977%; D: 4.749%.
With Cn1cc(CCC(=O)NCc2ccccc2OC(C)(C)C)cn1 the screen gave A: 8.704%; C: -1.587%; D: 6.276%.
With [H][C@@]12CCN(C(=O)NC3CC3)[C@]1([H])CCC(=O)N2Cc1csc(C)n1 the screen gave A: -1.237%; C: -12.72%.
With CNC(=O)c1ccc(CNC(=O)c2ccc(Cl)cc2F)cc1 the screen gave A: 2.918%; B: 41.39%; C: 17.67%; D: 2.19%.
With CN1C[C@H](O)[C@]2(CCN(Cc3ccc(F)c(F)c3)C2)S1(=O)=O the screen gave A: -6.29%; B: 6.437%; C: 16.15%; D: -1.466%.
With O=C(CN1CCCC1Cn1cncn1)NCCOc1ccc(F)cc1 (stereo unspecified) the screen gave A: 16.7%; B: -20.33%; C: -17.36%; D: -0.1283%.
With CN(C)C(=O)CNC(=O)c1cc2ccccc2nc1N1CCCC1 the screen gave A: -0.4545%; B: 4.105%; C: 12.53%; D: 4.631%.
With CCOCC1CN(S(=O)(=O)C2CC2)Cc2ncn(CC3CC3)c21 (stereo unspecified) the screen gave A: 8.689%; B: -19.28%; C: 0.6537%; D: -0.9955%.

The first 2 entries again:

Compound,A,B,C,D
O=C1NCCN(C(=O)CN2CCOC2=O)C1c1cccc(F)c1 (stereo unspecified),5.201,-60.78,24.02,2.287
[H][C@]12CO[C@H](CNS(C)(=O)=O)[C@@]1([H])CCN(C(=O)c1cnoc1C)C2,1.915,4.702,-3.071,-